# Results: PubChem BioAssay AID2551 (National Center for Advancing Translational Sciences (NCATS), 2010)
# Sequences of proteins named here, by UniProt entry; tags and fusion partners are left off. A change or cut given only in a name is not applied to a line headed by its entry.
# UniProt P51450: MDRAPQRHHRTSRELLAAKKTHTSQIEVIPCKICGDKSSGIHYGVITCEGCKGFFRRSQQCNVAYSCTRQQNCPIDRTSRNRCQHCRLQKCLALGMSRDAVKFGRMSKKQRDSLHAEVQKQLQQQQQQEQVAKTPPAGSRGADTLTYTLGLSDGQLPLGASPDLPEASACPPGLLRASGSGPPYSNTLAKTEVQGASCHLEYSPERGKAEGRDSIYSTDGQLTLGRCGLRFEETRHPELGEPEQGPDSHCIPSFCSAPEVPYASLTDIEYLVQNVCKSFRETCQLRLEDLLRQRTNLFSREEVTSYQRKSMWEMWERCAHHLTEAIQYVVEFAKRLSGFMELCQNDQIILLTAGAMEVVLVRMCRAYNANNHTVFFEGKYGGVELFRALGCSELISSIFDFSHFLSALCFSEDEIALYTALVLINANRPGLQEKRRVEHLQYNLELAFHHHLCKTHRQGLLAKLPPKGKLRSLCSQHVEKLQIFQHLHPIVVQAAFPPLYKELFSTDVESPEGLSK
# Hit rate of the full screen: of about 310,000 compounds, about 17,000 (5.5%) were called active. The inconclusive results got no clear call from the source; some entries with a clear call stand among them for comparison. The call rests on the fitted dose curve; in most records, active means well fitted inhibition curve with a large enough effect; inconclusive means small, poorly fitted or top-dose-only effect, or effect the other way; inactive means no such curve, though single readings can be large or run the other way. A potency beside an inconclusive call is a rough fit, not a confirmed value.
# Biological target: Nuclear receptor ROR-gamma (Mus musculus) (UniProt P51450)
# Test: qHTS for inhibitors of ROR gamma transcriptional activity; further: nearly all actives have a fitted effect of over 60% in size
# Conditions: Drosophila S2 Gal4-RORgamma UAS-luciferase reporter, 20 h; activity change, negative = inhibition: at 53.6 µM (top of the series)
# Summary of the method: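 Using a luciferase readout, inhibitors were identified by reduced reporter activity in Drosophila cells coexpressing a copper-inducible Gal4–ROR gamma fusion and UAS-driven Photinus luciferase, incubated 20 hr after 700 uM copper sulfate.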
# On the % scale 0 is the no-effect control and ±100 the full control effect; potency means the concentration at half of the fitted maximal effect.
Compound,Potency,"activity change, negative = inhibition"
CC(C)CC(=O)NC(=S)Nc1ccc(N2CCOCC2)cc1,active: 28.2 µM,
COc1ccc(NS(=O)(=O)c2ccc(N3CCCC3)c(NC(=S)Nc3ccc(SC(F)F)cc3)c2)cc1,,inactive: 34.8%
COc1cccc(C(=O)NC(=S)Nc2ccc(N(C)C)cc2)c1,active: 3.55 µM,
COc1ccc(C(=O)NN/C(C)=C/C(=O)C(F)(F)C(F)(F)C(F)(F)F)cc1,active: 5.62 µM,
O=C(Cc1ccccc1)NCC(=O)OCC(=O)c1ccc([N+](=O)[O-])cc1,,inactive: 1.44%
Cc1ccc(-c2nnc(NC(=O)c3ccco3)s2)cc1,,inactive: -78.6%
COc1cccc(N(C(=O)Cn2nnc(-c3cccs3)n2)C(C(=O)NC2CCCCC2)c2ccncc2)c1 (stereo not drawn),"inconclusive: 0.708 µM [inhibitor, full curve, poor fit]",
COc1cc(-c2nnc(SC(C)C(=O)Nc3c(C)n(C)n(-c4ccccc4)c3=O)o2)cc(OC)c1OC (stereo not drawn),,inactive: 9.12%
Nc1nc(CCl)nc(N(c2ccccc2)c2ccccc2)n1,,inactive: -10.9%
COc1cccc(-c2cc(=O)c3cc(NC(=O)c4ccccc4)ccc3[nH]2)c1,"inconclusive: 8.91 µM [activator, partial curve]",
Cc1cc(/C=C2/C(=N)N3C(=NC2=O)SN=C3S(C)(=O)=O)c(C)n1-c1ccccc1,"inconclusive: 11.2 µM [inhibitor, single point]",
O=C(CSc1ncccn1)N1CCc2ccccc2C1,,inactive: -8.75%
C/C(CC(=O)Nc1cccnc1)=N\NC(=O)C(C)Oc1ccc(Cl)cc1Cl (stereo not drawn),"inconclusive: 35.5 µM [inhibitor, single point]",
O=C(Cc1ccc(Cl)c(Cl)c1)N/N=C/c1cccnc1,"inconclusive: 14.1 µM [activator, single point]",
NS(=O)(=O)c1cc([C@@]2(O)NC(=O)c3ccccc32)ccc1Cl,,inactive: -6.9% [at 2.98 µM]
CCS(=O)(=O)c1ncc(Cl)c(C(=O)Nc2ccc(S(=O)(=O)N(C)c3ccccc3)cc2)n1,active: 2.82 µM,
Cc1ccc(/C=C/c2onc(C)c2S(=O)(=O)N2CCC(C(=O)N3CCN(C)CC3)CC2)cc1,"inconclusive: 35.5 µM [inhibitor, single point]",
CCOCc1nnc(NC(=O)CCc2ccccc2)s1,"inconclusive: 20 µM [activator, single point]",
Cc1noc(C)c1CSCC(=O)N1CCN(c2ccc(F)cc2)CC1,"inconclusive: 3.16 µM [activator, single point]",
Cc1cc(C)n2[nH]c(=O)c(N=Nc3cccc(Cl)c3)c2n1,active: 8.91 µM,
O=C(Cc1ccc(Cl)cc1)Nc1ccc(N2CCN(C(=O)c3ccco3)CC2)cc1,,inactive: 17.2%
O=C(Nc1ccc(Oc2ccc(NC(=O)Nc3ccccc3Cl)cc2)cc1)Nc1ccccc1Cl,active: 2.51 µM,
Cc1cc(/C=N/NC(=O)c2ccncc2)c(C)n1-c1ccccc1,active: 10 µM,
COc1ccc(CCNC(=O)C2CCCN(S(=O)(=O)c3ccc(OC)cc3)C2)cc1 (stereo not drawn),"inconclusive: 20 µM [activator, single point]",
COc1cccc2c1O/C(=N\O)C(C(=O)Nc1ccc(C)cc1)C2 (stereo not drawn),,inactive: 37%

Compound,Potency,"activity change, negative = inhibition"
O=C(COc1ccc(C(=O)c2ccccc2)cc1)NC1CCCCC1,"inconclusive: 5.62 µM [activator, single point]",
Cc1ccc(-c2nnn(CC(=O)N(CC(=O)NC3CCCCC3)c3ccc(F)c(Cl)c3)n2)o1,"inconclusive: 7.94 µM [inhibitor, partial curve, poor fit]",
Cc1ccc(NC(=O)Cc2csc(-c3ccccc3)n2)cc1F,"inconclusive: 25.1 µM [inhibitor, single point]",
CC12COC3(C(=O)Nc4ccccc4F)CC1CCC32C (stereo not drawn),active: 10 µM,
Cc1ccc(N(CC(=O)N/N=C/c2cccs2)S(C)(=O)=O)cc1,,inactive: -5.63% [at 10 µM]
S=C(Nc1ccc(Br)cc1Cl)N1CCCC1,"inconclusive: 14.1 µM [activator, single point]",
COc1ccc(OC)c(N2C(=O)C(Cl)=C(N3CCOCC3)C2=O)c1,"inconclusive: 35.5 µM [inhibitor, single point]",
C/C(=N\Nc1nc2ccccc2[nH]1)c1ccc2c(c1)OCCO2,active: 7.08 µM,
Cc1ccc(N2C(=O)C(Cl)=C(NCc3ccccc3)C2=O)c(C)c1,"inconclusive: 35.5 µM [inhibitor, single point]",
Cc1cc(C)c2cccc(NC(=S)NC(=O)c3ccccc3)c2n1,"inconclusive: 4.47 µM [inhibitor, full curve, poor fit]",
CCOC(=O)Cc1csc(NC(=O)CSc2nc(C)cc(=O)[nH]2)n1,"inconclusive: 35.5 µM [inhibitor, single point]",
CCc1ccc(Cn2nnc(C(=O)Nc3cccc(C)c3)c2N)cc1,"inconclusive: 17.8 µM [inhibitor, single point]",
Cc1nc(N2CCOCC2)c2c3c(sc2n1)CCC3,"inconclusive: 14.1 µM [inhibitor, single point]",
Cc1nc(C(=O)N2CCCC(C(=O)c3cccc(OC(C)C)c3)C2)cs1 (stereo not drawn),"inconclusive: 12.6 µM [activator, partial curve]",
C[C@@H](CN1CCC(Cc2ccccc2)CC1)[C@@H](O)c1ccc(O)cc1,,inactive: 13.1%
CC(C)NC(=O)NC(=O)CSc1ncc(C(F)(F)F)cc1Cl,"inconclusive: 2.82 µM [activator, partial curve]",
Nc1c2c(nc3ccccc13)CCCC2=O,,inactive: -36.2%
N=c1n(CCN2CCCCC2)c2ccccc2n1CC(=O)c1cccc([N+](=O)[O-])c1,"inconclusive: 20 µM [inhibitor, single point]",
C[C@H](NC(=O)c1ccccc1Cl)C(=O)OCC(=O)N1CC2(C)CC1CC(C)(C)C2 (stereo partly drawn),"inconclusive: 35.5 µM [inhibitor, single point]",
CCCCC(=O)NC(Nc1cc(C)ccn1)(C(=O)OCC)C(F)(F)F (stereo not drawn),,inactive: -5.77%
O=C(NNc1cc(C(F)(F)F)ccc1Cl)c1ccc(=O)[nH]c1,,inactive: -27%
COc1ccc(Cl)cc1S(=O)(=O)N1CCN(C(=O)c2cc(OC)c(OC)c(OC)c2)CC1,"inconclusive: 11.2 µM [activator, partial curve, poor fit]",
O=C(Nc1ccccc1)N1CC=C(c2ccccc2)CC1,"inconclusive: 1.78 µM [activator, full curve]",
Cc1ccc(NS(=O)(=O)c2ccc(OCC(=O)N3CCOCC3)cc2)cc1,"inconclusive: 4.47 µM [activator, full curve]",
O=S(=O)(Nc1ccc(O)c(CN2CCCCC2)c1)c1ccccc1,,inactive: 18.2%

Compound,Potency,"activity change, negative = inhibition"
CC(=O)NC(Cc1ccc(C(C)C)cc1)C(=O)NC1CCN(C(=O)c2cccc(C)c2)CC1 (stereo not drawn),,inactive: 1.66%
Cc1ccc(-c2nc(-c3cccnc3)no2)cc1,"inconclusive: 20 µM [inhibitor, single point]",
COc1ccc([N+](=O)[O-])cc1NC(=O)C(C)OC(=O)c1cccnc1 (stereo not drawn),"inconclusive: 0.794 µM [inhibitor, full curve]",
COc1cc2nc(CN3CCN(C(C)=O)CC3)[nH]c(=O)c2cc1OC,"inconclusive: 3.98 µM [activator, partial curve]",
Cc1cccc(NC(=O)c2nc[nH]c2C(=O)N[C@@H](CC(C)C)C(=O)OCc2ccccc2)c1,active: 3.55 µM,
COc1ccc(N2CCN(C(=O)c3ccc(N4C(=O)NC5CC4(C)Oc4ccccc45)cc3)CC2)cc1 (stereo not drawn),"inconclusive: 10 µM [activator, partial curve]",
O=C(O)c1ccc(CSc2nnc(SCc3ccccc3)s2)cc1,"inconclusive: 12.6 µM [activator, partial curve]",
COc1cccc2c(=O)n(CC(=O)N3CCN(c4ccccc4)CC3)ccc12,"inconclusive: 6.31 µM [inhibitor, partial curve, poor fit]",
Cc1cccn2cc(-c3ccccc3)nc12,active: 11.2 µM,
Cn1c(/C(C#N)=C(\O)c2cc(Cl)sc2Cl)nc2ccccc21,active: 4.47 µM,
Cc1ccc(C(C(=O)NCc2ccco2)N(C(=O)CNC(=O)c2cccs2)c2c(C)cccc2C)cc1 (stereo not drawn),"inconclusive: 35.5 µM [activator, single point]",
Cc1cccc(C(=O)Nc2ccc(O)c3c(=O)cc(-c4ccccc4Cl)oc23)c1,"inconclusive: 35.5 µM [inhibitor, single point]",
COC(=O)C1=C(NC(=O)c2ccc(C)cc2)CCS1,,inactive: -6.92%
Cc1ccc(C(=O)Nc2cccc([N+](=O)[O-])c2)cc1S(=O)(=O)Nc1cccc(C(=O)O)c1,,inactive: 15.2%
Cn1c(SCC(=O)NC2CCCC2)nnc1-c1ccco1,"inconclusive: 22.4 µM [activator, single point]",
C=CCn1c(SCC(=O)Nc2cccnc2Cl)nnc1-c1ccc(C(C)(C)C)cc1,"inconclusive: 11.2 µM [activator, partial curve]",
Cc1[nH]c2ccccc2c1C1C(c2ccccc2)=NN=C(C(C)C)N1O (stereo not drawn),"inconclusive: 35.5 µM [activator, single point]",
C#CCOn1c(-n2nc(C)cc2C)nc2ccccc2c1=O,active: 11.2 µM,
OB(O)c1ccc(Br)cc1,,inactive: 0.408%
COc1cc2c(cc1NC(=O)COC(=O)C1CC(=O)N(Cc3ccco3)C1)oc1ccccc12 (stereo not drawn),active: 8.91 µM,
N#Cc1ccc(-c2ccc(OCC(=O)NCCc3ccccc3)cc2)cc1,,inactive: 18.8%
Cc1ccc(-n2cc(CNCCCn3cccn3)c(-c3cccc(C)c3)n2)cc1,,inactive: -35.2%
CCN(CC)C(=O)COc1ccc(/C(C)=N/Nc2ncc(Cl)cc2Cl)cc1,active: 6.31 µM,

# Among those listed so far, 2 contain bromine:
Compound,Potency,"activity change, negative = inhibition"
S=C(Nc1ccc(Br)cc1Cl)N1CCCC1,"inconclusive: 14.1 µM [activator, single point]",
OB(O)c1ccc(Br)cc1,,inactive: 0.408%
